This is one part of the list.
Experiments:
Assay in all cases: log2 fold change, soluble protein after heating vs DMSO (PISA); higher = thermal stabilisation; K562 lysate, 10 uM; active = over 0.2 and 3.5 SD of the protein, either way, in both replicates (recomputed)
erlotinib = compound: C#Cc1cccc(Nc2ncnc3cc(OCCOC)c(OCCOC)cc23)c1 [erlotinib]
Outline: (§1)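 A 30 min treatment with 10 μM compound was applied to crude K562 extract at 1 mg/mL protein in PBS pH 7.4 with 1 mM MgCl2. Heating for 3 min spanned 48°C-58°C, after which aliquots were pooled, adjusted to 0.5% NP-40 at 4°C and spun at 21,000xg for 90 min. TMTpro 16plex LC-MS/MS of the supernatant, with channel sums equalised, gave values recorded as log-two fold change in thermal stability against solvent controls, from duplicates.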

By UniProt entry, the sequences of proteins in these tests, tags left out. Where a name states a change or a piece, a line headed by the entry shows the natural chain unless it says otherwise.
UniProt Q9BVK8: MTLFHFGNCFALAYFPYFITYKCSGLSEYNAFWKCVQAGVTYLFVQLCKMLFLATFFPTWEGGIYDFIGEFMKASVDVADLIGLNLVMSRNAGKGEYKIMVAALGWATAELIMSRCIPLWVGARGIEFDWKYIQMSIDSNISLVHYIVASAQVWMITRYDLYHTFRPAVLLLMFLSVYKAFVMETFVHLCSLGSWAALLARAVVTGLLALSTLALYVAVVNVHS
UniProt Q96AN5: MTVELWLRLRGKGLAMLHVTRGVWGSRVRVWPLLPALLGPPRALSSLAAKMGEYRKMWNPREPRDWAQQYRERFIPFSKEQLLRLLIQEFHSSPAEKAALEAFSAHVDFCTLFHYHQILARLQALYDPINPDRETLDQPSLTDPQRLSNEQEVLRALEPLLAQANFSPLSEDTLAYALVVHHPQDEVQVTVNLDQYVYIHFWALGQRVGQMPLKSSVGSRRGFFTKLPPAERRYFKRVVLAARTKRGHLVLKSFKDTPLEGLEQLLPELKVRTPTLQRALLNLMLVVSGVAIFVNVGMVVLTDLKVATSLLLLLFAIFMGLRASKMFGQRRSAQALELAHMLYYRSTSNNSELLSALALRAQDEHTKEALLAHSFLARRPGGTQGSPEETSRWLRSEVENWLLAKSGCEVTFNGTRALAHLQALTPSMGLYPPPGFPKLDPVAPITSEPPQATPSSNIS
UniProt Q9H1K6: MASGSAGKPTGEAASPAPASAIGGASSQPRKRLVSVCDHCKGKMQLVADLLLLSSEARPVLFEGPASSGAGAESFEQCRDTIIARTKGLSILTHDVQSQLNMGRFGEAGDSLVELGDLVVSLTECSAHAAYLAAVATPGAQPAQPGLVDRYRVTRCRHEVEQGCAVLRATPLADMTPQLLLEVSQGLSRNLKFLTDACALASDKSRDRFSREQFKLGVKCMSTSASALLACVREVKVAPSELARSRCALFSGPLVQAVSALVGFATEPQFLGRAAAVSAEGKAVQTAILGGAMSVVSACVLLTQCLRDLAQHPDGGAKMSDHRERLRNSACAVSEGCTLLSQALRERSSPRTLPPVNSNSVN
UniProt Q9NVA4: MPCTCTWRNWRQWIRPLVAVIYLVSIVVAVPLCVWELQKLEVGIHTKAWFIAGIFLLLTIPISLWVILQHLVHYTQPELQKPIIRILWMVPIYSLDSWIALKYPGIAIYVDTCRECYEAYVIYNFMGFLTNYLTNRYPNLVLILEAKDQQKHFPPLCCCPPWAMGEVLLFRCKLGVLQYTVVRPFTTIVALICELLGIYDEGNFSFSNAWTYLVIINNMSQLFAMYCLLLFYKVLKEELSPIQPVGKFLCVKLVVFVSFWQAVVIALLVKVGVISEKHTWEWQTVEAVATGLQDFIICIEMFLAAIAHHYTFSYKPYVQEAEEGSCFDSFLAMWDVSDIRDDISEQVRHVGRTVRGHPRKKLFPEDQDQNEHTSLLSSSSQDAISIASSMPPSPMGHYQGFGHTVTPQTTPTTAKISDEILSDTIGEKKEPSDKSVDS
UniProt O94876, whole entry, looked up: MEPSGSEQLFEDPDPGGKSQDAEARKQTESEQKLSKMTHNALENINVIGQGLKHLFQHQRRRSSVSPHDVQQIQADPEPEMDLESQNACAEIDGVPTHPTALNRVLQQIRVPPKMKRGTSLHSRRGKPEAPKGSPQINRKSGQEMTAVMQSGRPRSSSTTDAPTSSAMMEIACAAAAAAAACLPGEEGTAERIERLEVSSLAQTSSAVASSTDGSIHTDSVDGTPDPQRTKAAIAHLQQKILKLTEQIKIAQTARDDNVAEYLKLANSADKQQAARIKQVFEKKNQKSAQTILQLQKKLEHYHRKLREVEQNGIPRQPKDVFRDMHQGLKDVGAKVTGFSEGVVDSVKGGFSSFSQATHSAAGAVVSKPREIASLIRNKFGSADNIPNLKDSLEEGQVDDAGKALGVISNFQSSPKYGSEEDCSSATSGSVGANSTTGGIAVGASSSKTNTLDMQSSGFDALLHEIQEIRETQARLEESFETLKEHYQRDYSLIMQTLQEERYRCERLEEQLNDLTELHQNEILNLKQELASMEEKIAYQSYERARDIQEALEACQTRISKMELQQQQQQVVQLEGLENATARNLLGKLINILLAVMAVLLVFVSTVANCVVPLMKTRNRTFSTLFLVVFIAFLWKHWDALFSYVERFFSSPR
UniProt Q9BSA9: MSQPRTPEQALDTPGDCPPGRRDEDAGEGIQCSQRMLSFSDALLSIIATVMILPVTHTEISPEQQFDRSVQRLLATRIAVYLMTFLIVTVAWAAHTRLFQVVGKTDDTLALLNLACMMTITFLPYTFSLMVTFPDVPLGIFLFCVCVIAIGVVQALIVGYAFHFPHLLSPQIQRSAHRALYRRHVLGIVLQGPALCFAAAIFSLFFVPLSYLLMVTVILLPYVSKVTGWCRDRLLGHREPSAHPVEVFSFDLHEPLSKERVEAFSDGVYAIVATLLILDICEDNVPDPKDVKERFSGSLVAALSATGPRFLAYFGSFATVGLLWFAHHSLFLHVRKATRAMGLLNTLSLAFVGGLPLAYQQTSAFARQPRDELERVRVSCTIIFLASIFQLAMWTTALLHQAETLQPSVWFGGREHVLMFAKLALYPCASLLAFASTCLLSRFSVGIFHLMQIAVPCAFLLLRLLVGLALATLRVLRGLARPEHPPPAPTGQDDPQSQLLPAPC
UniProt Q8IUC6, whole entry, looked up: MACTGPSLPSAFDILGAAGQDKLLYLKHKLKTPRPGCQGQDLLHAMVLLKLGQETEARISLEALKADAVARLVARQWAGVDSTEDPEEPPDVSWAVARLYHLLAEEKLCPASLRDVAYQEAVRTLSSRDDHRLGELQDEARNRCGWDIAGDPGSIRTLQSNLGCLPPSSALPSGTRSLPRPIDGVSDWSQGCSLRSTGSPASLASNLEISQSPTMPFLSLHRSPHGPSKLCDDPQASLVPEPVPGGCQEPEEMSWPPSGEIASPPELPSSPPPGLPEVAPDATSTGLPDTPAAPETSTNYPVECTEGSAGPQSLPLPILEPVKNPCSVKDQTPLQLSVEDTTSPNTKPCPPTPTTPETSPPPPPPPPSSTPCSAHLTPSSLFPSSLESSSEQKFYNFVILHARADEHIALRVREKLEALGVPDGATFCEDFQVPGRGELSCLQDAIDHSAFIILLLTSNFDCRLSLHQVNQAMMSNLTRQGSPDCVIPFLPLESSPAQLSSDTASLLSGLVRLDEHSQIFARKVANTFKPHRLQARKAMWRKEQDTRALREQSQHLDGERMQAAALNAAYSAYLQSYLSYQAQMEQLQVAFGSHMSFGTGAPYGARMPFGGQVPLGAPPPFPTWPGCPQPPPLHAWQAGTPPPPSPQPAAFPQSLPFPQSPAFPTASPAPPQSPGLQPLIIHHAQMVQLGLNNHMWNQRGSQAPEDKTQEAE
UniProt Q96B96: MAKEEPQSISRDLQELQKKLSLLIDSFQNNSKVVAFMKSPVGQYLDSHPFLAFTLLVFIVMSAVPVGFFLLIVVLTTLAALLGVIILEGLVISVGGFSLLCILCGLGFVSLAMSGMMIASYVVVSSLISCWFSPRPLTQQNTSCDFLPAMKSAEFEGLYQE
UniProt Q96CG3: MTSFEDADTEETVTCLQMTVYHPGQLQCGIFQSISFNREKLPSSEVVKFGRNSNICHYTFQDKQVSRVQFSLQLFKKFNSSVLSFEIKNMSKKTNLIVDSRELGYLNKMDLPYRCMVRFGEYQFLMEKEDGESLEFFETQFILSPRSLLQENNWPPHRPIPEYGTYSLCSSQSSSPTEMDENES
UniProt P51854: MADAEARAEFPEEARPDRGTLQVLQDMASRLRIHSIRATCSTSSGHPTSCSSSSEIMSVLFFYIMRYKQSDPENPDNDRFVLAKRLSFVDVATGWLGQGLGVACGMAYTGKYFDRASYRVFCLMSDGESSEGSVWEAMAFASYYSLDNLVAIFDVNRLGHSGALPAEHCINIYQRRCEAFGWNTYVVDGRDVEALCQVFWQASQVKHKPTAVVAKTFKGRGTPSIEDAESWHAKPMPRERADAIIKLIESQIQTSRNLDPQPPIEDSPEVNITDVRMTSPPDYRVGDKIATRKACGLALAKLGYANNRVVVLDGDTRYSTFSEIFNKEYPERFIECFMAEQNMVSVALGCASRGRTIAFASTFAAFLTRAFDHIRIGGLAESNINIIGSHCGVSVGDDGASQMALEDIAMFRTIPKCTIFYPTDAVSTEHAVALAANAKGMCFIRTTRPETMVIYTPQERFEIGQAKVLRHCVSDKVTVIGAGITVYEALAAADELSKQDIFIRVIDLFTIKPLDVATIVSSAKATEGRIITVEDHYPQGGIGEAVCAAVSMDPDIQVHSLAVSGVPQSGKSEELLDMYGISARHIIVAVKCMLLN
UniProt P07996: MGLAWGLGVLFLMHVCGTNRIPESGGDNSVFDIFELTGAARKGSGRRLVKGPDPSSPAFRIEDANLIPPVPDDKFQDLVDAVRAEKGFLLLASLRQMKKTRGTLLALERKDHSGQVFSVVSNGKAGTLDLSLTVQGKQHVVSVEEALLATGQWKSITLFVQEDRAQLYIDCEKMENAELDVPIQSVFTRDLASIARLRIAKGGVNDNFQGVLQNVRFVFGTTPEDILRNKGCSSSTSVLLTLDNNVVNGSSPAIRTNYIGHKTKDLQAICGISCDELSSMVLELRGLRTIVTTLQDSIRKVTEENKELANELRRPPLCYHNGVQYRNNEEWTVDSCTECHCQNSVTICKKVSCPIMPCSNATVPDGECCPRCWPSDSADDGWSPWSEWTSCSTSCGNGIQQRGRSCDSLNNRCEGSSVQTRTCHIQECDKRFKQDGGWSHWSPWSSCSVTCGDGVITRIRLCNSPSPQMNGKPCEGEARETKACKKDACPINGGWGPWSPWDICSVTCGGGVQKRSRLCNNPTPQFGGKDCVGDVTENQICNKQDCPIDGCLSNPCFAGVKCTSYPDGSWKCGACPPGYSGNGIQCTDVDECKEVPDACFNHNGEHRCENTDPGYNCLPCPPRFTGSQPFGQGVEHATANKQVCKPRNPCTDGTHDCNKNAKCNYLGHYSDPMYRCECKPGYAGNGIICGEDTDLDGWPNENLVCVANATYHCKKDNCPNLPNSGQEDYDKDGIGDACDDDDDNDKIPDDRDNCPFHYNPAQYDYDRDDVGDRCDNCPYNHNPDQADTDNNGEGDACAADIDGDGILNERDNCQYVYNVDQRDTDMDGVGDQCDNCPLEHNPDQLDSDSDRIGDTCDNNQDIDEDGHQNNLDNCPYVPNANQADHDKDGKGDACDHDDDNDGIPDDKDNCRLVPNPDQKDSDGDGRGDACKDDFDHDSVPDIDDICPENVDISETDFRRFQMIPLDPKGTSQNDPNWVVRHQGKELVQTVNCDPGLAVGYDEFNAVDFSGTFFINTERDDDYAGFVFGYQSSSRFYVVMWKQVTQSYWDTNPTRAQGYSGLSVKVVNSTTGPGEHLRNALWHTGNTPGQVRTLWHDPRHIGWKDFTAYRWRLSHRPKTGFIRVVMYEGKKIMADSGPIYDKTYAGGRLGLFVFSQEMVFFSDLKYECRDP
UniProt Q8NE00: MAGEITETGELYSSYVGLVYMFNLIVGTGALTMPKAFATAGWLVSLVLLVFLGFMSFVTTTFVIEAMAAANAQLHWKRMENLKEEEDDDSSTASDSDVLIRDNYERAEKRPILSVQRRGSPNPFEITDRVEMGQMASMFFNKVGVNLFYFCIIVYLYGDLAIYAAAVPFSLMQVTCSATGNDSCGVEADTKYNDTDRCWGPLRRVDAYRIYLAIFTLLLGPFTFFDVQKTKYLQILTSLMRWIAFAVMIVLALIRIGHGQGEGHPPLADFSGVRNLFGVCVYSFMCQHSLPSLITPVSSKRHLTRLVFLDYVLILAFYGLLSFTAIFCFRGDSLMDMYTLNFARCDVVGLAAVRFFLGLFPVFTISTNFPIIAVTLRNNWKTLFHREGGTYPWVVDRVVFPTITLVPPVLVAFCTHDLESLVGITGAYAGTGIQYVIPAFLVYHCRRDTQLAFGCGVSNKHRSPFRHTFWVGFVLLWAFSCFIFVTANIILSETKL
UniProt O76062: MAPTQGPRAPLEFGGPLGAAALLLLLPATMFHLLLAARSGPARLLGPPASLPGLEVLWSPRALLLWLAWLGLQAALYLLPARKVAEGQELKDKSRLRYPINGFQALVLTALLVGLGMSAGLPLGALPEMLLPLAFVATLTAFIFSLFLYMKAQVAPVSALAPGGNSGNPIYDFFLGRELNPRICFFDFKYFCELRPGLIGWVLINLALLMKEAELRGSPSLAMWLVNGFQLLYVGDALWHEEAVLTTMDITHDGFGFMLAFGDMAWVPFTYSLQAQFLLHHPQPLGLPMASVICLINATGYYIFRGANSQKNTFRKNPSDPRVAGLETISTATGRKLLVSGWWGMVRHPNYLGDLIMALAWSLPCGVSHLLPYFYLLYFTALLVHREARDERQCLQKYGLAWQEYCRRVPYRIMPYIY

[1] = compound: C1=CC(=CC=C1C2=NC3=C(N2)C=C(C=C3)C(=O)N)OC4=CC=C(C=C4)Cl
Outline: as §1

[2] = compound: C1=CC2=NC=CN=C2C=C1/C=C/3\C(=O)NC(=O)S3
Outline: as §1

[3] = compound: C1=CC=C(C=C1)C2=NC(=C(N2)C3=CC=NC=C3)C4=CC(=C(C=C4)Cl)O
Outline: as §1

[4] = compound: C1CCN(C1)C(=O)NC2=CC=CC(=C2)NC3=NC=C(C(=N3)NCCC4=CN=CN4)Br
Outline: as §1

[5] = compound: C1CN(CCC1(CC2=CC=C(C=C2)Cl)N)C3=NC=NC4=C3C=CN4
Outline: as §1

IRAK-1-4 Inhibitor I = compound: C1COCCN1CCN2C3=CC=CC=C3N=C2NC(=O)C4=CC(=CC=C4)[N+](=O)[O-] [IRAK-1-4 Inhibitor I]
Outline: as §1

ibrutinib = compound: C=CC(=O)N1CCC[C@@H](n2nc(-c3ccc(Oc4ccccc4)cc3)c3c(N)ncnc32)C1 [ibrutinib]
Outline: as §1

[6] = compound: CC(=O)c1cnc2ccc(-c3cc(Cl)c(O)c(Cl)c3)nc2c1N[C@H]1CC[C@H](CN(C)C)CC1
Outline: as §1

ralimetinib = compound: CC(C)(C)Cn1c(N)nc2ccc(-c3[nH]c(C(C)(C)C)nc3-c3ccc(F)cc3)nc21 [ralimetinib]
Outline: as §1

[7] = compound: CC(C)(O)CC(=O)NCCn1ccc2ncnc(Nc3ccc(Oc4cccc(C(F)(F)F)c4)c(Cl)c3)c21
Outline: as §1

[8] = compound: CC(C)C1=C2N=C(C=C(N2N=C1)NCC3=CC=CC=C3)NCCCCCCN
Outline: as §1

[9] = compound: CC1=C(C(CC(=O)N1)C2=CC=C(C=C2)C(F)(F)F)C(=O)NC3=C(C=C4C(=C3)C=NN4)F
Outline: as §1

[10] = compound: CC1=C(C=C(C=C1)NC(=O)C2=CC(=CC=C2)C(C)(C)C#N)NC3=CC4=C(C=C3)N=CN(C4=O)C
Outline: as §1

[11] = compound: CC1=C(C=C(C=C1)NC(=O)C2=CC(=CC=C2)N(C)C)NC(=O)C3=CC=C(C=C3)O
Outline: as §1

[12] = compound: CC1=CC=C(C=C1)SC2=C3C=C(SC3=CN=C2)C(=O)N
Outline: as §1

[13] = compound: C/C(=N\NC(=O)C1=CC(=CC=C1)S(=O)(=O)N2CCOCC2)/C3=C(C=CC(=C3)Cl)O
Outline: as §1

[14] = compound: C1=CC2=C(C=CC(=C2)/C=C\3/C(=O)NC(=NCC4=CC=CS4)S3)N=C1
Outline: as §1

[15] = compound: C1=CC=C2C(=C1)C3=NNC4=CC=CC(=C43)C2=O
Outline: as §1

[16] = compound: CC1=C(C2=C(C=C1)C(=O)C3=CC=CC=C3N2CCCN)C
Outline: as §1

Measured: log2 fold change

TMEM147 (UniProt Q9BVK8)
inactive: erlotinib -0.111 | [1] -0.089 | [2] 0.004 | [3] -0.03 | [4] -0.042 | [5] -0.133 | IRAK-1-4 Inhibitor I 0.042 | ibrutinib -0.048 | [6] -0.07 | ralimetinib -0.045 | [7] -0.053 | [8] 0.185 | [9] -0.012 | [10] -0.035 | [11] 0.008 | [12] 0.028

TMEM143 (UniProt Q96AN5)
inactive: [13] 0.066 | [14] -0.059 | [3] 0.083 | [15] 0.051 | [4] 0.04 | [5] 0.437 | IRAK-1-4 Inhibitor I 0.33 | [6] -0.081 | ralimetinib -0.199 | [7] 0.037 | [9] -0.112 | [16] 0.034 | [10] 0.014 | [11] 0.158 | [12] -0.084

TLNRD1 (UniProt Q9H1K6)
inactive: [2] -0.492 | [3] 0.072 | IRAK-1-4 Inhibitor I 0.022 | ibrutinib 0.181 | [6] -0.049 | ralimetinib -0.031 | [7] 0.058 | [16] -0.182 | [10] 0.159 | [11] -0.011 | [12] 0.227

TMEM184C (UniProt Q9NVA4)
inactive: erlotinib 0.006 | [1] 0.059 | [2] 0.172 | [3] -0.05 | [4] 0.007 | [5] 0.057 | IRAK-1-4 Inhibitor I 0.021 | ibrutinib -0.052 | [6] 0.048 | ralimetinib 0.015 | [7] 0.033 | [8] -0.031 | [9] -0.055 | [16] -0.04 | [10] 0.063 | [11] -0.037 | [12] 0.07

TMCC1 (UniProt O94876)
inactive: [13] 0.002 | [14] 0.101 | [15] -0.062 | [4] 0.176 | [5] -0.05 | [16] 0.155

TMEM175 (UniProt Q9BSA9)
inactive: erlotinib 0.083 | [1] -0.098 | [2] 0.017 | [3] -0.062 | IRAK-1-4 Inhibitor I 0.136 | ibrutinib 0.082 | ralimetinib -0.099 | [7] -0.002 | [8] 0.232 | [10] 0.113 | [11] 0.064

TICAM1 (UniProt Q8IUC6)
inactive: erlotinib 0.172 | [1] -0.031 | [2] -0.137 | [3] -0.014 | IRAK-1-4 Inhibitor I 0 | ibrutinib 0.028 | [6] -0.027 | ralimetinib 0.076 | [7] -0.049 | [8] -0.07 | [9] -0.023 | [16] 0.015 | [10] 0.055 | [11] 0.006 | [12] 0.042

TGM2 (UniProt A2A299)
inactive: [6] 0.06 | [9] -0.13 | [12] 0.037

TMEM159 isoform 2 (UniProt Q96B96)
inactive: erlotinib -0.036 | [1] -0.083 | [2] -0.042 | [3] -0.072 | [4] -0.134 | [5] -0.143 | IRAK-1-4 Inhibitor I 0.022 | ibrutinib -0.07 | [6] -0.01 | ralimetinib 0.074 | [7] -0.017 | [8] 0.256 | [9] -0.03 | [16] 0.025 | [10] -0.002 | [11] -0.033 | [12] -0.074

TIFA (UniProt Q96CG3)
inactive: erlotinib 0.037 | [1] 0.004 | [3] 0.106 | [4] -0.028 | [5] 0.055 | IRAK-1-4 Inhibitor I -0.058 | ralimetinib -0.132 | [7] -0.134 | [8] -0.035 | [10] -0.073 | [11] 0.134

TKTL1 (UniProt P51854)
inactive: [4] -0.053 | [5] 0.049 | [16] 0.131

THBS1 (UniProt P07996)
inactive: [13] -0.069 | [14] 0.018 | [15] -0.002 | [16] -0.078 | [10] 0.016

TMEM102 (UniProt Q8N9M5)
inactive: [13] 0.067 | [14] -0.302 | [3] -0.086 | [15] 0.032 | [4] -0.016 | [5] -0.073 | IRAK-1-4 Inhibitor I 0.101 | ralimetinib 0.145 | [7] -0.062 | [9] -0.081 | [10] 0.125 | [11] 0.058

Copied from above (3 entries):
TMEM159 isoform 2 (UniProt Q96B96)
inactive: erlotinib -0.036 | [1] -0.083 | [2] -0.042 | [3] -0.072 | [4] -0.134 | [5] -0.143 | IRAK-1-4 Inhibitor I 0.022 | ibrutinib -0.07 | [6] -0.01 | ralimetinib 0.074 | [7] -0.017 | [8] 0.256 | [9] -0.03 | [16] 0.025 | [10] -0.002 | [11] -0.033 | [12] -0.074

TIFA (UniProt Q96CG3)
inactive: erlotinib 0.037 | [1] 0.004 | [3] 0.106 | [4] -0.028 | [5] 0.055 | IRAK-1-4 Inhibitor I -0.058 | ralimetinib -0.132 | [7] -0.134 | [8] -0.035 | [10] -0.073 | [11] 0.134

TKTL1 (UniProt P51854)
inactive: [4] -0.053 | [5] 0.049 | [16] 0.131

Remaining list, next part:

TMEM104 (UniProt Q8NE00)
inactive: [13] -0.422 | [14] 0.11 | [2] 0.014 | [15] 0.108 | ibrutinib 0.071 | [10] 0.064

TMCO3 (UniProt Q6UWJ1)
inactive: [13] -0.078 | [14] -0.105 | [2] -0.099 | [15] 0.056 | [4] -0.052 | [5] 0.087 | ibrutinib 0.125 | [10] -0.002

TM7SF2 (UniProt O76062)
inactive: [10] -0.138

THOC2 (UniProt H0Y7U4)
inactive: [2] 0.038 | [3] 0.129 | IRAK-1-4 Inhibitor I 0.011 | ibrutinib 0.192 | [6] -0.03 | ralimetinib -0.018 | [7] -0.048 | [16] 0.045 | [10] -0.081 | [11] -0.132 | [12] -0.061

Source: the supplement of paper PMC10849652
